About 13,000 (3.2%) of roughly 400,000 compounds were called active. Inconclusive means that the source gave no clear call. Such entries were picked first, then a sample of the others. Calls come from the whole dose curve; as a rule, active = well fitted cell-killing curve with a large enough effect; inconclusive = small, poorly fitted or top-dose-only effect, or effect the other way; inactive = flat fitted curve, though single readings scatter. Potencies beside an inconclusive call are fits to weak or partial responses and may not hold up.
Assay: qHTS assay for MDR1-selective chemotherapeutics: Primary screen using the drug-selected MDR subline cells KB-V1; note: nearly all actives have a fitted effect of over 60% in size
Settings: KB-V1 MDR cells viability, CellTiter-Glo, 72 h; activity change, negative = cytotoxicity: at 46.1 µM (top of the series)
Outline: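 Following 72 h at 37 degrees C with compound, KB-V1 cell viability was read by CellTiter-Glo luminescence, medium being phenol-red-free DMEM plus 10% FBS; concentration-response parameters came from normalized, curve-fitted qHTS data.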
For `Fc1ccc(-c2nc3c(Cl)cc(C(F)(F)F)cn3c2Cl)cc1`, the Potency was inconclusive: 9.2 µM [cytotoxic, partial curve]. For `COc1ccc(NC(=O)c2ccccc2C)c(OC)c1`, the Potency was inconclusive: 23.1 µM [cytotoxic, single point]. In the case of `COc1ccc2c(c1)Cc1sc(NC(=O)c3cccc(Cl)c3)nc1-2`, the “activity change, negative = cytotoxicity” value was inactive: -0.647%. In the case of `Nc1c(Cl)cc(C(=O)NC2CC2)cc1Cl`, the “activity change, negative = cytotoxicity” value was inactive: -8.57%. For `Cc1ccc(C(=O)CC(=O)c2ccccc2C)c(O)c1`, the Potency was inconclusive: 29.1 µM [cytotoxic, single point]. In the case of `O=C(Nc1ccc(N2CCN(C(=O)c3ccco3)CC2)cc1)c1ccccc1`, the “activity change, negative = cytotoxicity” value was inactive: -20%. For `CCN(CC)S(=O)(=O)c1ccc(OC)c(N)c1`, the Potency was inconclusive: 29.1 µM [rising, single point]. In the case of `COc1ccc(S(=O)(=O)Nc2cc(SCC(=O)O)c(O)c3ccccc23)cc1`, the Potency was inconclusive: 29.1 µM [cytotoxic, partial curve, poor fit]. In the case of `COC(=O)[C@]12CCCCC=C1N(CCC1=CCCCC1)C(=O)[C@H](CC(=O)N1CCN(C(=O)c3ccco3)CC1)C2`, the “activity change, negative = cytotoxicity” value was inactive: 16.8%. For `CC(=O)NC12CC3CC(C1)CC(C(=O)N1CCN(S(=O)(=O)c4ccc(Cl)s4)CC1)(C3)C2`, the Potency was inconclusive: 23.1 µM [cytotoxic, single point]. With `O=C(CNC(=O)C1CCCCC1)OCC(=O)c1ccc(F)cc1` the Potency was inconclusive: 18.4 µM [rising, single point]. With `COc1ccc(/C=C(\C#N)c2nc(-c3cc4ccccc4oc3=O)cs2)cc1OC` the Potency was inconclusive: 29.1 µM [rising, single point]. In the case of `CCC(=O)N1CCc2cc(S(=O)(=O)CCC(=O)Nc3ccc(OC)c(OC)c3)ccc21`, the “activity change, negative = cytotoxicity” value was inactive: 0%. In the case of `COc1ccc(C2C3=C(CC(C)(C)CC3=O)Oc3ncn(Cc4ccccc4)c(=N)c32)cc1` (stereo unspecified), the Potency was active: 3.26 µM. For `COc1cc(C2C(C(=O)c3cccs3)=C(O)C(=O)N2Cc2ccco2)cc(OC)c1OC` (stereo unspecified), the Potency was inconclusive: 11.6 µM [cytotoxic, partial curve]. In the case of `O=C1CCS/C(=N\N=C\c2ccc(Cl)cc2Cl)N1`, the Potency was inconclusive: 29.1 µM [cytotoxic, single point]. In the case of `CC1CCN(S(=O)(=O)c2ccc3nc(N4CCN(c5ccccc5F)CC4)ccc3c2)CC1`, the “activity change, negative = cytotoxicity” value was inactive: -6.61%. In the case of `CCOC(=O)c1sc2ncc([N+](=O)[O-])cc2c1N`, the Potency was inconclusive: 8.2 µM [cytotoxic, partial curve]. For `O=C1N[C@@H](Cc2ccccc2)C(=O)N2[C@@H]3N(S(=O)(=O)c4ccccc4)c4ccccc4[C@]3(Br)C[C@@H]12`, the “activity change, negative = cytotoxicity” value was inactive: 15.1%. In the case of `Cc1cccc(C)c1NC(=O)c1c(O)c2ccccc2[nH]c1=O`, the Potency was inconclusive: 29.1 µM [cytotoxic, single point]. In the case of `CCCc1ccc(OCc2nc(-c3ccc(NC(=O)c4cccs4)cc3)no2)cc1`, the Potency was inconclusive: 32.6 µM [cytotoxic, single point]. For `CCCN(CCC)CCCNC(=O)c1nn(C)c2c1CS(=O)(=O)c1ccccc1-2`, the “activity change, negative = cytotoxicity” value was inactive: -6.92%. In the case of `COC(=O)C1=C(C)Nc2c(c(=O)n(C)c(=O)n2C)C1c1ccc(Cl)cc1` (stereo unspecified), the Potency was inconclusive: 10.3 µM [cytotoxic, partial curve]. For `CC(=O)Nc1nonc1-c1nnc(SCc2cccc(Br)c2)n1C`, the “activity change, negative = cytotoxicity” value was inactive: 0.431%. In the case of `COc1ccc(/C=N/OCC(=O)Nc2cc(C)on2)cc1OC`, the Potency was inconclusive: 18.4 µM [cytotoxic, single point]. In the case of `COCCn1c(SCC(=O)c2[nH]c(C)c(C(C)=O)c2C)nc2ccccc2c1=O`, the Potency was inconclusive: 4.61 µM [cytotoxic, partial curve]. With `CCOC(=O)c1c(NC(=O)CN2C(=O)NC(C)(c3ccccc3)C2=O)sc(C)c1C` (stereo unspecified) the Potency was active: 16.4 µM. In the case of `Cc1c(Cl)cccc1NC(=S)N/N=C/c1ccccc1Cl`, the Potency was inconclusive: 16.4 µM [rising, single point]. In the case of `COc1cccc(CNC(=O)c2ccc(Cl)c(S(=O)(=O)N3CCOCC3)c2)c1`, the “activity change, negative = cytotoxicity” value was inactive: -3.17%. With `CC(=O)N1N=C(c2cccc([N+](=O)[O-])c2)OC1(C)CC(=O)Nc1ccccc1` (stereo unspecified) the Potency was active: 20.6 µM. In the case of `O=C(CN1C(=O)S/C(=C\C=C\c2ccccc2)C1=O)Nc1cccc(O)c1`, the Potency was inconclusive: 29.1 µM [cytotoxic, single point]. In the case of `O=c1c2ccccc2nc2sc(Nc3cccc(C(F)(F)F)c3)nn12`, the “activity change, negative = cytotoxicity” value was inactive: -15.4%. In the case of `Cc1ccc(C2Nc3ccccc3C(=O)N2Cc2ccco2)cc1` (stereo unspecified), the Potency was inconclusive: 20.6 µM [cytotoxic, single point]. With `O=C(NC1CCCC1)C(c1ccccc1F)N(C(=O)c1csnn1)c1ccccc1` (stereo unspecified) the Potency was inconclusive: 11.6 µM [cytotoxic, partial curve]. In the case of `CCOC(=O)c1c(NC(=O)CN2CCN(c3ccc(Cl)cc3)CC2)sc(C)c1C`, the “activity change, negative = cytotoxicity” value was inactive: 1.74%. For `CCOc1ccc(CN2CCNC(=O)C2CC(=O)NCCc2nc(C)c3c(n2)CCC3)cc1` (stereo unspecified), the Potency was inconclusive: 10.3 µM [rising, partial curve, poor fit]. With `CCOc1cc(NC(=S)N2CCC(C(N)=O)CC2)c(C(=O)OC)cc1OCC` the “activity change, negative = cytotoxicity” value was inactive: 17.6%. With `CCc1nnc(NC(=O)CSc2ncnc3c2oc2ccccc23)s1` the “activity change, negative = cytotoxicity” value was inactive: -20.9%. For `Cc1c(C(=O)OCC(=O)N2CC(=O)Nc3ccccc32)oc2ccc(Br)cc12`, the Potency was inconclusive: 29.1 µM [cytotoxic, single point]. For `O=C(O)/C=C/c1ccc2noc(-c3ccccc3)c2c1`, the Potency was inconclusive: 20.6 µM [cytotoxic, single point]. With `Cn1c(-c2ccccc2)c(C(=O)CCl)c2ccccc21` the Potency was inconclusive: 29.1 µM [cytotoxic, single point]. With `O=C(CSc1nc(-c2ccccc2)cc(=O)[nH]1)Nc1ccccn1` the Potency was inconclusive: 10.3 µM [rising, partial curve, poor fit]. In the case of `Fc1ccc(-c2noc3ncnc(NCc4cccc(Cl)c4)c23)cc1`, the “activity change, negative = cytotoxicity” value was inactive: 2.99%. With `Cc1cc(N)n2nc(-c3ccccc3)cc2n1` the Potency was inconclusive: 18.4 µM [cytotoxic, single point]. For `Cc1cc(NC(=O)c2ccc([N+](=O)[O-])o2)ccc1NC(=O)c1ccco1`, the Potency was inconclusive: 1.46 µM [cytotoxic, partial curve, poor fit]. In the case of `Cc1cc2ccc(C)c(C)c2nc1SCC(=O)c1cccs1`, the Potency was active: 14.6 µM. In the case of `CSc1ncc(CN2CCCCC2C(=O)Nc2ccc(Oc3ccccc3)nc2)cn1` (stereo unspecified), the Potency was inconclusive: 6.51 µM [cytotoxic, partial curve]. In the case of `COc1ccc(-c2noc(CCC(=O)Nc3ccccc3Cl)n2)cc1OC`, the “activity change, negative = cytotoxicity” value was inactive: 0.839%. With `CCN(CCCn1c(SCC#N)nc2ccccc2c1=O)c1ccccc1` the Potency was inconclusive: 8.2 µM [cytotoxic, partial curve, poor fit]. For `COc1ccc(NS(=O)(=O)c2cc(NC(=O)/C=C/c3ccccc3OC)ccc2N2CCCCC2)cc1`, the Potency was active: 5.17 µM. With `COCC(C)n1c(C)cc(C(=O)COC(=O)c2ccc(N3CCCC3=O)cc2)c1C` (stereo unspecified) the Potency was inconclusive: 29.1 µM [cytotoxic, single point]. For `Cc1ccc(-c2nc(S(=O)(=O)c3ccc(C)cc3)c(N3CCOCC3)o2)cc1`, the Potency was inconclusive: 9.2 µM [cytotoxic, partial curve, poor fit]. For `COc1ccc(NC(=O)c2ccco2)c(OC)c1`, the activity change, negative = cytotoxicity was inconclusive: 5.67%. For `COc1ccc(NC(=O)CO/N=C2/CCCc3nonc32)c(OC)c1`, the Potency was inconclusive: 14.6 µM [cytotoxic, partial curve, poor fit]. With `COc1ccccc1CNC(=O)c1cnn(-c2ccc(F)cc2F)c1C1CCN(C(=O)OC(C)(C)C)CC1` the “activity change, negative = cytotoxicity” value was inactive: -3.18%. With `CC(NC(=O)COC(=O)c1ccccc1F)C1CC2CCC1C2` (stereo unspecified) the “activity change, negative = cytotoxicity” value was inactive: -6.81%. In the case of `CCOC(=O)NC(=O)/C(C=Nc1ccc(Cl)c(Cl)c1Cl)=C(\C)O`, the Potency was inconclusive: 1.64 µM [rising, full curve]. For `O=C(CSc1nncn1-c1ccccc1)N1CCCC1`, the Potency was inconclusive: 29.1 µM [rising, single point]. In the case of `O=S(=O)(c1ccc(OCC(O)CN2CCc3ccccc3C2)cc1)N1CCOCC1` (stereo unspecified), the Potency was inconclusive: 23.1 µM [cytotoxic, partial curve]. With `Cc1ccc2nc3c(cc(C(=O)NCCc4ccccc4)c(=N)n3CCN3CCOCC3)c(=O)n2c1` the Potency was inconclusive: 11.6 µM [cytotoxic, partial curve]. In the case of `N#CCC(=O)Nc1ccccc1C(=O)O`, the “activity change, negative = cytotoxicity” value was inactive: 16.5%. For `COc1ccc(C(=O)NC(CC(C)C)C(=O)O)cc1` (stereo unspecified), the activity change, negative = cytotoxicity was inconclusive: 89.8%. In the case of `COc1ccc([C@H]2CC(=O)C=C(c3c(OC)cccc3OC)C2)cc1`, the Potency was inconclusive: 25.9 µM [cytotoxic, single point]. In the case of `CC(Oc1ccc(Cl)cc1)C(=O)N/N=C/c1ccsc1` (stereo unspecified), the “activity change, negative = cytotoxicity” value was inactive: 16.7%. In the case of `CC(C)c1ccc(Cc2cnc(NC(=O)c3ccc4c(c3)CC(c3ccccc3)OC4=O)s2)cc1` (stereo unspecified), the “activity change, negative = cytotoxicity” value was inactive: 3.26%. With `COc1ccc(OC)c(CCNC(=O)Cn2ccc3cc(S(=O)(=O)N4CCCC4)ccc32)c1` the “activity change, negative = cytotoxicity” value was inactive: 0%. With `CCc1ccc(CN(C)C(C)C(=O)Nc2ccc(S(=O)(=O)N3CCCC3)cc2)cc1` (stereo unspecified) the Potency was inconclusive: 18.4 µM [cytotoxic, single point]. With `COc1ccccc1OC(C)C(=O)N1CCN(CCc2ccccn2)CC1` (stereo unspecified) the “activity change, negative = cytotoxicity” value was inactive: -10.6%. With `CC(OC(=O)CNC(=O)c1ccc(Cl)c([N+](=O)[O-])c1)C(=O)NC1CCCCC1C` (stereo unspecified) the Potency was inconclusive: 13 µM [rising, partial curve, poor fit]. For `COc1cc(-c2coc3c(C(=O)NCc4ccc(OC)c(OC)c4)cccc23)ccc1O`, the Potency was inconclusive: 1.64 µM [cytotoxic, full curve]. With `COc1ccc(C(=O)N2N=C(c3cccs3)CC2c2ccccc2O)cc1` (stereo unspecified) the “activity change, negative = cytotoxicity” value was inactive: 0%.
% is set by controls: 0 for no effect and ±100 for the full control effect; potency is the fitted concentration of half-maximal effect.
